Values quoted from earlier work in patent US20070281927A1, “Anti-inflammatory and analgesic compositions and related methods” (priority 2006, published 2007).
The name of at least one read-out is uncertain.

Details: fasted, steady-state conditions

Cc1cnc(NC(=O)C2=C(O)c3ccccc3S(=O)(=O)N2C)s1 [Meloxicam, 4-hydroxy-2-methyl-N-(5-methyl-2-thiazolyl-)-2H-1,2-benzothiazine-3-carboxamide 1,1-dioxide]
time to mean maximum plasma concentration (Cmax): four to five
